Reference: the supplement of paper PMC3334620
Whole data set: some 33,000 sequences, median “E-score (-0.5 to 0.5)” near -0.015, cut for the highest 2% near 0.3. This is one part of the list.

The sequences below were run against T1, Abf1 (UniProt P14164) (assay: PBM E-score (8-mer binding enrichment) (E-score (-0.5 to 0.5)); higher = stronger / more preferred TF binding). Conditions: protein concentration: 200 nM; construct: GST-full length.
T1 sequence: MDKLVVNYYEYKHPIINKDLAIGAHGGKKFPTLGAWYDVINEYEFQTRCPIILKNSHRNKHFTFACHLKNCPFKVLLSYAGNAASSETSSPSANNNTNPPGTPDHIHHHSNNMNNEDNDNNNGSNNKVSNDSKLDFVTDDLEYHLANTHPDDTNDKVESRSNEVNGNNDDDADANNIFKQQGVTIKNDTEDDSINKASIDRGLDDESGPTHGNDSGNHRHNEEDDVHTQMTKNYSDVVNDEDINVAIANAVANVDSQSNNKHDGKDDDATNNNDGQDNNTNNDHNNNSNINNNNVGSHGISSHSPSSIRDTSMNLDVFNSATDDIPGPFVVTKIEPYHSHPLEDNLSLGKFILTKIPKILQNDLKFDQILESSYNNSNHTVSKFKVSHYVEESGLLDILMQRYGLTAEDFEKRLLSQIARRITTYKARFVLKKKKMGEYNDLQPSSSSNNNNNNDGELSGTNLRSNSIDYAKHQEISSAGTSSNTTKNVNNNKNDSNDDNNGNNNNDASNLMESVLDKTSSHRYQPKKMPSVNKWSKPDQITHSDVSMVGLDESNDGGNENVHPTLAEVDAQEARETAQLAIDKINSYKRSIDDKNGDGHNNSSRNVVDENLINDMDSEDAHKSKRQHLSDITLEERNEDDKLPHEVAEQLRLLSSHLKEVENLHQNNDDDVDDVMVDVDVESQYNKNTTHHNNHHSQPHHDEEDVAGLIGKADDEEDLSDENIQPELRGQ
Method in brief: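 Full-length yeast transcription factors or their DNA-binding domains, GST-tagged and expressed with PURExpress, were applied at about 100-200 nM to universal all-10-mer Agilent arrays. These arrays had been made double-stranded by primer extension on fresh or once-stripped slides. Detection used fluorescent anti-GST, normalisation used masliner, and E-scores for ungapped eight-base words pooled with reverse complements came from the Universal PBM Analysis Suite.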

| Sequence | PBM E-score |
| --- | --- |
| TGACTAAA | 0.114 |
| AAAAGGCT | -0.0975 |
| ACTAGGTA | 0.0698 |
| CCGACATA | 0.132 |
| TGGGCCCA | -0.0418 |
| TAACCAAA | 0.104 |
| CACAAACC | -0.231 |
| ATGCACGA | 0.362 |
| AACTACAT | 0.0192 |
| ACTTCTAT | 0.0524 |
| CCTCCAGG | -0.309 |
| CTCAGGAC | -0.0804 |
| CCCCCAAG | -0.284 |
| AGCCGAAC | -0.0523 |
| CCAGCACG | 0.104 |
| GACCGCAA | -0.0702 |
| GCAACCTA | 0.00521 |
| GCGGTTCA | -0.188 |
| CATCTCTA | 0.0193 |
| AAGAACCG | -0.0787 |
| ACATTCCT | -0.0383 |
| ACGAACAG | 0.0741 |

| Sequence | PBM E-score |
| --- | --- |
| CGCCGATC | -0.0795 |
| TGGGACAA | 0.0227 |
| GCCAAAAA | 0.0859 |
| ATAAACAC | -0.0853 |
| CGCCCTGA | -0.0612 |
| CTGGTATC | 0.0225 |
| GCATGAAA | -0.0167 |
| GCACCGCC | -0.318 |
| ACGATCTG | 0.203 |
| AGCAGGGC | -0.105 |
| GATCGGTA | 0.0856 |
| AAGACATT | 0.0353 |
| ACATGGAG | -0.0303 |
| ACAAGTGT | -0.00562 |
| ATAATTAA | 0.274 |
| AGCATCAC | -0.0618 |
| GAGCTCCA | -0.0124 |
| CAAGTTTA | -0.117 |
| GCGGTTAC | 0.115 |
| GATCGAAC | 0.00758 |
| CCCAGTGC | -0.126 |
| CGAACGAA | 0.09 |

| Sequence | PBM E-score |
| --- | --- |
| AGCTCTCA | -0.014 |
| GTTTTGCA | 0.131 |
| GAGCTTCA | -0.131 |
| AGTTTCTG | -0.0446 |
| ACGAATTG | 0.202 |
| CTAAGCAA | -0.0898 |
| GTTTAGTA | 0.155 |
| AAGCTCTG | -0.0961 |
| AATCCGAG | -0.145 |
| AGGAATGC | -0.18 |
| AACAGCAC | -0.13 |
| TAACAGCA | 0.0285 |
| GCTGAGGA | -0.131 |
| ACGGTTAG | -0.0669 |
| GCATCGGA | -0.0251 |
| CGGATTCA | -0.138 |
| ACGTACCA | 0.0604 |
| AATCTCTC | 0.0576 |
| CTTTGACC | -0.0936 |
| GGCCTTGA | -0.16 |
| TCTTTCAA | -0.107 |
| AGTCTTTG | -0.138 |

Quoted at random: three records from the list

| Sequence | PBM E-score |
| --- | --- |
| GATCGAAC | 0.00758 |
| ACAAGTGT | -0.00562 |
| CCTCCAGG | -0.309 |

Additional records follow.

| Sequence | PBM E-score |
| --- | --- |
| ACCACTCG | 0.187 |
| CCCTCCTC | -0.292 |
| GTAGTGGA | 0.123 |
| ACCCTAGC | -0.191 |
| ATACATAC | 0.0699 |
| AAATAAGT | 0.199 |
| ATAGCAGC | -0.0629 |
| CGTCATGA | 0.196 |
| ATACCGAG | -0.0976 |
| ACTGGTAC | -0.0194 |
| ATTTGCCC | -0.00616 |
| CGTGAACA | 0.22 |
| AATTAGGC | -0.0201 |
| ATATGTGC | -0.0574 |
| CTCATTTC | 0.0189 |
| GGGTATTA | -0.106 |
| ACCCGAAA | -0.193 |
| ACGAGGTC | 0.172 |
| GGCCGTAC | 0.367 |
| GCGGGTAA | -0.127 |
